Measured values published in the supplement of paper PMC6411743.
± gives the standard deviation of the averaged measurements. The list shows a part of the results, in another mix than the full data.

Tests used:
Assay in all cases: NP40-soluble protein abundance relative to vehicle (solubility fold change) (ratio); higher = more soluble protein in presence of AMP-PNP
[1] = target: T1, PIBF1 (UniProt Q8WXW3)
T1 sequence (whole entry): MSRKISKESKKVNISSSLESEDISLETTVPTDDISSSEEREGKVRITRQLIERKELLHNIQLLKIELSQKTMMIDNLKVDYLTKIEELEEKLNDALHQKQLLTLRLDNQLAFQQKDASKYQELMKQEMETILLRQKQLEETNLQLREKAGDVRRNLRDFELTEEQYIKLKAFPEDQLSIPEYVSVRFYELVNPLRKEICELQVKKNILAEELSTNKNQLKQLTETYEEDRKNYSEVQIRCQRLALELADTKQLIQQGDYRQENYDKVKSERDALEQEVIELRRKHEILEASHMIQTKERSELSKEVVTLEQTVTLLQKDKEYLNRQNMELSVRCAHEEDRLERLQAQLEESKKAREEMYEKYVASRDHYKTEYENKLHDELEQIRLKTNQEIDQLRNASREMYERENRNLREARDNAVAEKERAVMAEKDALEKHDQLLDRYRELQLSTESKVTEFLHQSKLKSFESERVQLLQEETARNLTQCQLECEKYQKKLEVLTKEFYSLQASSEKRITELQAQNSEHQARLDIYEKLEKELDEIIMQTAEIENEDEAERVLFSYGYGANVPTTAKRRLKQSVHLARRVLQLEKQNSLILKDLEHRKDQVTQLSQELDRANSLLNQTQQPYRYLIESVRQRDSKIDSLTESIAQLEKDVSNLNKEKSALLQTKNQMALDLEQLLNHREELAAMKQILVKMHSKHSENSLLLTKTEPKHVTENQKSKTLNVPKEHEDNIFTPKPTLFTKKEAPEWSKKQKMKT
Method in brief: (§1)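 Data come from three independent experiments in which Dounce-homogenised Jurkat crude lysate was treated at eight concentrations from 0.1 to 10 mM. Treatment ran 10 min at room temperature and then 3 min at 37 °C, after which 0.8% NP40 and benzonase were added for 60 min at 4 °C before ultracentrifugation. The supernatant underwent TMT labelling and LC-MS/MS, and vsn-normalised intensities were expressed as fold change against the detergent-processed vehicle in each replicate.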

[2] = target: T2, RBM15B (UniProt Q8NDT2)
T2 sequence (whole entry): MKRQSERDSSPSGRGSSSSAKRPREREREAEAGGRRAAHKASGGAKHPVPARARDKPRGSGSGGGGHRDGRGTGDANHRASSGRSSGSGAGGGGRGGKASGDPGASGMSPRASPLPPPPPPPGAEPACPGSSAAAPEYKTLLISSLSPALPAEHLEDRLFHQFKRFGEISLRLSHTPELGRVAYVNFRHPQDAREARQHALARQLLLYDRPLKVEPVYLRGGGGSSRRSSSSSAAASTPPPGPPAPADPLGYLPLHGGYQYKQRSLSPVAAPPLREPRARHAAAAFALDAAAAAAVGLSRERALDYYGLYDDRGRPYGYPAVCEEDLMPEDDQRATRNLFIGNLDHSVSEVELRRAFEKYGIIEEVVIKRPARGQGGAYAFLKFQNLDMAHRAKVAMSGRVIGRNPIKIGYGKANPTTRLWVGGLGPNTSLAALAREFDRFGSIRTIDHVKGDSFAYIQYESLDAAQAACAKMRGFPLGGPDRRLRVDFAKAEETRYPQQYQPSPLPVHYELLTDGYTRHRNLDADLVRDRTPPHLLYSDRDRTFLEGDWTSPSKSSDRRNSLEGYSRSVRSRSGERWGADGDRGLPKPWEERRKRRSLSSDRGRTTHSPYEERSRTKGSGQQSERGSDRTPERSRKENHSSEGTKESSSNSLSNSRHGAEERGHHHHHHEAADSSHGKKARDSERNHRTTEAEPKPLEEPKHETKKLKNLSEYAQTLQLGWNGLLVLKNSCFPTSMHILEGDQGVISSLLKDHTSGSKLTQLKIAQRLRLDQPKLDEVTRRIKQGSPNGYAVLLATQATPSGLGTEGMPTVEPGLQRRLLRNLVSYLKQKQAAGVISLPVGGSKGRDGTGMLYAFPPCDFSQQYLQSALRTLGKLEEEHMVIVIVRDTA
Method in brief: as §1

[3] = target: T3, SEMA4D (UniProt Q92854)
T3 sequence (whole entry): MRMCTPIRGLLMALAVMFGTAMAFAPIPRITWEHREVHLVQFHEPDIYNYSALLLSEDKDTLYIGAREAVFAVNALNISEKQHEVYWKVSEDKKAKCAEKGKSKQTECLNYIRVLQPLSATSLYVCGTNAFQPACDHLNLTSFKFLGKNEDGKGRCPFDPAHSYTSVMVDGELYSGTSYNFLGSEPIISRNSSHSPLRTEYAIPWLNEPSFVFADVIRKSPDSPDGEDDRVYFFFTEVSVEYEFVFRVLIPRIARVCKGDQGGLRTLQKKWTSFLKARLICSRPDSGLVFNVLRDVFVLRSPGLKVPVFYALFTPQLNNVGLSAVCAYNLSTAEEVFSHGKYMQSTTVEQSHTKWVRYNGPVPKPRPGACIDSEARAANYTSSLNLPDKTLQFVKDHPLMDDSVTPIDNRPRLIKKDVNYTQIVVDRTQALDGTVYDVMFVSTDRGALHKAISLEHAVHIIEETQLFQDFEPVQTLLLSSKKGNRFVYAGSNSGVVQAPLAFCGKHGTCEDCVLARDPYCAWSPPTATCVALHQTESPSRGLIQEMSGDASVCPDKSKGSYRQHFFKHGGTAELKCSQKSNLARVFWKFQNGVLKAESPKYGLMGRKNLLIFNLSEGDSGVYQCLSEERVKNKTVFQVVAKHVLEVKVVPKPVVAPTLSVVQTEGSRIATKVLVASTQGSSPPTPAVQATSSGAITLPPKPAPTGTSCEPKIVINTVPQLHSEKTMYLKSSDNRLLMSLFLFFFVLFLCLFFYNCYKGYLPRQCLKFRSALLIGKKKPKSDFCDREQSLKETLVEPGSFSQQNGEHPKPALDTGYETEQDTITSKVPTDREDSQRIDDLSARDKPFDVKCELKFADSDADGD
Method in brief: as §1

[4] = target: T4, SYMPK (UniProt Q92797)
T4 sequence (whole entry): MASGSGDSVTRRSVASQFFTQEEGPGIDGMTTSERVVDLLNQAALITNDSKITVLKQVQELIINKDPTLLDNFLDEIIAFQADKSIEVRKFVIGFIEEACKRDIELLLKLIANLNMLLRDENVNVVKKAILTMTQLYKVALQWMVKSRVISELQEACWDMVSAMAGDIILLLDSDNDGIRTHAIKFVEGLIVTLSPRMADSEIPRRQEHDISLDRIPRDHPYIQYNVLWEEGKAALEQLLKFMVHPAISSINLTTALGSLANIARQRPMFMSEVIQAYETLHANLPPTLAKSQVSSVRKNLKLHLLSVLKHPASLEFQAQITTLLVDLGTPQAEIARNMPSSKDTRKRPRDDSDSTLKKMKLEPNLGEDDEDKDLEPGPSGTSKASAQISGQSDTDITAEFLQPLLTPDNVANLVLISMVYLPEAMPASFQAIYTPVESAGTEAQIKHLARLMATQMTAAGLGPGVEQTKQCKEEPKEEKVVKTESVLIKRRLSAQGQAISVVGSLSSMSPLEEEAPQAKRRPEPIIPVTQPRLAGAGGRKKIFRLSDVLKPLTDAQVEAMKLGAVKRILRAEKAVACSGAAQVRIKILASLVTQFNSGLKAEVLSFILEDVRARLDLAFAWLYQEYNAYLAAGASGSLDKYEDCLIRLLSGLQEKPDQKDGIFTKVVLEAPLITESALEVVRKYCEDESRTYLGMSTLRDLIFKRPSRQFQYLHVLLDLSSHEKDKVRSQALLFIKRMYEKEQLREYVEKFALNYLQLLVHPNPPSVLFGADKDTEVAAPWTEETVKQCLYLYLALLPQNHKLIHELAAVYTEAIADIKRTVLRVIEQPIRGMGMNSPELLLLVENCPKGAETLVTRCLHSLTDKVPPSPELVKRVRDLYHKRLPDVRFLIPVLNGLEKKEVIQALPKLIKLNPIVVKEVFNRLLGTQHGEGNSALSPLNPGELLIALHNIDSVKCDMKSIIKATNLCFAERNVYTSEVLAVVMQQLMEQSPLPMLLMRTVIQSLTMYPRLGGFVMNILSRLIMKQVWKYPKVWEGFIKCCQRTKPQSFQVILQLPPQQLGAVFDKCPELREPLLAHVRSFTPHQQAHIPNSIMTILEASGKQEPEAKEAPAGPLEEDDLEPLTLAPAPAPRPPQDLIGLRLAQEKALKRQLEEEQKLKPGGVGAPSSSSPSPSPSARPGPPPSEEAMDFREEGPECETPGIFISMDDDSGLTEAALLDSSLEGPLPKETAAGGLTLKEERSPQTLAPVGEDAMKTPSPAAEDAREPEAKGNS
Method in brief: as §1

[5] = target: T5, UBLCP1 (UniProt Q8WVY7)
T5 sequence (whole entry): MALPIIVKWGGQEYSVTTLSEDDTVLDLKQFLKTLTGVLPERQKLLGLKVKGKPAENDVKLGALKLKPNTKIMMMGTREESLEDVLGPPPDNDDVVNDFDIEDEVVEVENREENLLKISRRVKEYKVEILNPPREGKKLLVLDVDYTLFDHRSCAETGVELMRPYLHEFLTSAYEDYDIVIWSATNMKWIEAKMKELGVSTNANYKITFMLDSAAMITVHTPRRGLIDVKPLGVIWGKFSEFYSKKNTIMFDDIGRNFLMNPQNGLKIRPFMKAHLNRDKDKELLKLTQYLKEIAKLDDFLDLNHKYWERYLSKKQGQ
Method in brief: as §1

[6] = target: T6, UniProt Q8NBZ7 and related entries
T6 sequence (whole entry): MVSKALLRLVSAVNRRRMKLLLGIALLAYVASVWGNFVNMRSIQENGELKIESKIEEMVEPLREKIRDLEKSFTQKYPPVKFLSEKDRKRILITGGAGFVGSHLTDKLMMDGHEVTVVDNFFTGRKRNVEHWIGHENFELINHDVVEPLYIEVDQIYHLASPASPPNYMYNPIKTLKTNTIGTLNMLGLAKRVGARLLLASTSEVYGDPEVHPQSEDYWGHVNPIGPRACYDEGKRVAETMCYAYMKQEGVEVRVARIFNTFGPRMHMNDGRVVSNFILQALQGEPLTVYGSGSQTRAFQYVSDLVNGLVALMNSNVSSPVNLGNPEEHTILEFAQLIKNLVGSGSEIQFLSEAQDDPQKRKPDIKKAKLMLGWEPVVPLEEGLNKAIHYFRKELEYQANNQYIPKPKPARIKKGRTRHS
Method in brief: as §1

[7] = target: T7, UniProt Q8NCE2-2
T7 sequence (whole entry): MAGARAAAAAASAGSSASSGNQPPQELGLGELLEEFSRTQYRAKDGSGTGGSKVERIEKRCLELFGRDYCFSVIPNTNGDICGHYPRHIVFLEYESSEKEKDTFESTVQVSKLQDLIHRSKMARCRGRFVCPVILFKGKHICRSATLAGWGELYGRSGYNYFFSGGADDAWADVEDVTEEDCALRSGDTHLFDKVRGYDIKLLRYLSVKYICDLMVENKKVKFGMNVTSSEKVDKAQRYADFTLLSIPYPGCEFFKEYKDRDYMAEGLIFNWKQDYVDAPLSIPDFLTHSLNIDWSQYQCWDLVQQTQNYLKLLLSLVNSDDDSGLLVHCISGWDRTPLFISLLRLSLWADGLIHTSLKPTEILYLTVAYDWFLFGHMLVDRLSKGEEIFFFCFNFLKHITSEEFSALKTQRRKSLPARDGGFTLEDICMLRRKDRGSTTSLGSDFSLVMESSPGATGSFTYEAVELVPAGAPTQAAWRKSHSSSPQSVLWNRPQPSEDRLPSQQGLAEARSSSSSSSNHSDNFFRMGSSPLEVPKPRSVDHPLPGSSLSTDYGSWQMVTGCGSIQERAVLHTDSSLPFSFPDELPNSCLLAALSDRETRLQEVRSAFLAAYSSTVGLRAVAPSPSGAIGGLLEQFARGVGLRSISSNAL
Method in brief: as §1

Nc1ncnc2c1ncn2[C@@H]1O[C@H](COP(=O)(O)OP(=O)(O)NP(=O)(O)O)[C@@H](O)[C@H]1O [adenylyl imidodiphosphate]
NP40-soluble protein abundance ([1]; concentration: 8mM): 0.987 ± 0.033 | NP40-soluble protein abundance ([1]; concentration: 10mM): 1 ± 0.059 | NP40-soluble protein abundance ([2]; concentration: 1mM): 0.987 ± 0.021 | NP40-soluble protein abundance ([2]; concentration: 2mM): 1 ± 0.019 | NP40-soluble protein abundance ([2]; concentration: 4mM): 1.03 ± 0.03 | NP40-soluble protein abundance ([2]; concentration: 6mM): 1.1 ± 0.053 | NP40-soluble protein abundance ([2]; concentration: 8mM): 1.11 ± 0.051 | NP40-soluble protein abundance ([2]; concentration: 10mM): 1.16 ± 0.06 | NP40-soluble protein abundance ([3]; concentration: 1mM): 1 ± 0.013 | NP40-soluble protein abundance ([3]; concentration: 2mM): 1.05 ± 0.074 | NP40-soluble protein abundance ([3]; concentration: 4mM): 0.992 ± 0.043 | NP40-soluble protein abundance ([3]; concentration: 6mM): 1.01 ± 0.04 | NP40-soluble protein abundance ([3]; concentration: 8mM): 1 ± 0.02 | NP40-soluble protein abundance ([3]; concentration: 10mM): 1.03 ± 0.016 | NP40-soluble protein abundance ([4]; concentration: 1mM): 0.998 ± 0.036 | NP40-soluble protein abundance ([4]; concentration: 2mM): 0.989 ± 0.024 | NP40-soluble protein abundance ([4]; concentration: 4mM): 1.02 ± 0.045 | NP40-soluble protein abundance ([4]; concentration: 6mM): 1 ± 0.019 | NP40-soluble protein abundance ([4]; concentration: 8mM): 1.01 ± 0.025 | NP40-soluble protein abundance ([4]; concentration: 10mM): 1.02 ± 0.047 | NP40-soluble protein abundance ([5]; concentration: 1mM): 0.952 ± 0.065 | NP40-soluble protein abundance ([5]; concentration: 2mM): 0.946 ± 0.053 | NP40-soluble protein abundance ([5]; concentration: 4mM): 0.945 ± 0.11 | NP40-soluble protein abundance ([5]; concentration: 6mM): 1.11 ± 0.13 | NP40-soluble protein abundance ([5]; concentration: 8mM): 1.16 ± 0.069 | NP40-soluble protein abundance ([5]; concentration: 10mM): 1.16 ± 0.12 | NP40-soluble protein abundance ([6]; concentration: 1mM): 0.996 ± 0.019 | NP40-soluble protein abundance ([6]; concentration: 2mM): 1.01 ± 0.021 | NP40-soluble protein abundance ([6]; concentration: 4mM): 1.037 ± 0.0067 | NP40-soluble protein abundance ([6]; concentration: 6mM): 1.04 ± 0.058 | NP40-soluble protein abundance ([6]; concentration: 8mM): 0.997 ± 0.035 | NP40-soluble protein abundance ([6]; concentration: 10mM): 1.01 ± 0.015 | NP40-soluble protein abundance ([7]; concentration: 1mM): 1.03 ± 0.035 | NP40-soluble protein abundance ([7]; concentration: 2mM): 0.993 ± 0.079 | NP40-soluble protein abundance ([7]; concentration: 4mM): 1.02 ± 0.057
